Values of other authors as cited in patent US6610750B1, “Treatment of osteoarthritis” (Laboratoires Negma, priority 2000, dated 2003).
At least one compound was matched to its structure with a doubt left.

Tests used:
[1] = system: IL-1 and other cytokines (IL-6 and TNF); conditions: several studies in vitro and with animal models of osteoarthritis; cited from earlier work
[2] = system: prostaglandin biosynthesis; conditions: cited from earlier work

SMILES: O=C(O)c1cc(O)c2c(c1)C(=O)c1cccc(O)c1C2=O [rhein]
- inhibition of IL-1 and other cytokines (IL-6 and TNF) [1]: inhibit
- inhibitory effect on the phospholiphase, cyclo-oxygenase or lipo-oxygenase pathways (prostaglandin biosynthesis) [2]: no inhibitory effect
